PubChem BioAssay AID1053208 | Peter MacCallum Cancer Centre | 2014

Aim: 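Genes whose silencing cuts survival of bone tumour cells only with doxorubicin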 (primary screen)
Cell system: mouse osteosarcoma cells, early-passage culture from an engineered mouse model of fibroblastic bone tumour
Reagents: siRNA pool against mouse genes, 40 nM
Duration: about 120 h (48 h before drug, then 72 h with drug)
Conditions: doxorubicin 100 nM for 72 h, roughly 30-40% inhibitory dose
Detection: 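Viability read as ATP luminescence after 72 h of 100 nM doxorubicin or none, duplicate wells averaged, scaled to non-targeting siRNA, then expressed as robust z-scores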
Direction: viability z-score with doxorubicin and doxorubicin viability vs non-targeting: higher = more viable cells under doxorubicin; viability z-score without drug: higher = more viable cells with knock-down alone; z-score of drug to no-drug ratio: higher = less drug sensitisation by knock-down
Rule for the call: 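Called active if knock-down leaves viability unchanged without drug (z within -2 to 2) but lowers it with doxorubicin (z at or under -2)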
The whole screen tested about 17,000 reagents; shown is a part drawn at random. Of all reagents, 788 (4.7%) are marked active. 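Calls rest on z-score classes alone; an extra cut-off of viability at most 70% of control was not applied to them.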 A number with no mark means an inactive call.

no.	gene knocked down	PubChem SID	combined z-score class	viability z-score with doxorubicin	viability z-score without drug	z-score of drug to no-drug ratio	doxorubicin viability vs non-targeting
1	Gpr27	SID152275772	no change with or without drug	-0.67	-1.18	0.22	0.88
2	Zbtb5	SID152263235	no change with or without drug	-0.9	1.52	-1.69	0.86
3	Rhox3a	SID152321317	no change with or without drug	0	-0.17	0.22	0.94
4	Clip1	SID152268376	no change with or without drug	-1.35	-1.18	-0.56	0.82
5	Enpp3	SID152303368	no change with or without drug	-0.34	0.51	-0.56	0.91
6	Cops7a	SID152321718	no change with or without drug	0.22	0.17	0.22	0.96
7	Zfp592	SID152298729	no change with or without drug	0.11	-0.51	0.56	0.95
8	Tex261	SID152265120	no change with or without drug	-0.79	-1.18	0.11	0.87
9	Yme1l1	SID152272381	no change with or without drug	-0.79	-0.51	-0.34	0.87
10	Dgat2	SID152302355	no change with or without drug	0.67	0.34	0.56	1
11	Slfn10	SID152284395	no change with or without drug	-0.45	-0.84	0.22	0.9
12	Homer2	SID152267413	no change with or without drug	-0.56	-0.51	-0.11	0.89
13	Tcf15	SID152302059	no change with or without drug	-0.67	1.18	-1.35	0.88
14	Il10	SID152319090	no change with or without drug	1.24	0.51	1.01	1.05
15	Smu1	SID152328534	low cell count with and without drug	-4.05	-2.53	-2.92	0.58
16	Gpr142	SID152336910	no change with or without drug	-0.11	0.67	-0.45	0.93
17	Akr1c14	SID152326067	no change with or without drug	-0.79	-0.84	-0.11	0.87

3 entries from above in another layout.
Zfp592 [SID152298729]: combined z-score class = no change with or without drug; viability z-score with doxorubicin = 0.11; viability z-score without drug = -0.51; z-score of drug to no-drug ratio = 0.56; doxorubicin viability vs non-targeting = 0.95
Tex261 [SID152265120]: combined z-score class = no change with or without drug; viability z-score with doxorubicin = -0.79; viability z-score without drug = -1.18; z-score of drug to no-drug ratio = 0.11; doxorubicin viability vs non-targeting = 0.87
Yme1l1 [SID152272381]: combined z-score class = no change with or without drug; viability z-score with doxorubicin = -0.79; viability z-score without drug = -0.51; z-score of drug to no-drug ratio = -0.34; doxorubicin viability vs non-targeting = 0.87

The list goes on.
no.	gene knocked down	PubChem SID	combined z-score class	viability z-score with doxorubicin	viability z-score without drug	z-score of drug to no-drug ratio	doxorubicin viability vs non-targeting
18	Nsun4	SID152341983	no change with or without drug	0.79	1.85	-0.34	1.01
19	Or8k27	SID152296623	no change with or without drug	-0.11	0.34	-0.22	0.93
20	Clic6	SID152307379	low cell count with doxorubicin only (active)	-2.7	-1.18	-2.02	0.7
21	Ppp1r12c	SID152308773	no change with or without drug	0.22	0.17	0.22	0.96
22	Sap30bp	SID152340740	low cell count without drug only	-1.35	-2.36	0.34	0.82
23	Plch1	SID152335050	low cell count with doxorubicin only (active)	-2.02	-0.84	-1.57	0.76
24	Nrn1	SID152288996	no change with or without drug	0.45	0.84	0	0.98
25	Apoe	SID152333048	high cell count with and without drug	3.6	2.19	2.14	1.26
26	Ptgis	SID152285033	no change with or without drug	0	0.84	-0.45	0.94
27	BCLP2	SID152284836	no change with or without drug	0.11	-0.17	0.34	0.95
28	Or5c1	SID152312856	no change with or without drug	-0.9	-1.18	0	0.86
29	Prl	SID152337053	no change with or without drug	0.45	-0.34	0.79	0.98
30	Frmd4b	SID152268486	no change with or without drug	1.12	1.18	0.45	1.04
31	Rundc3a	SID152294792	no change with or without drug	0.22	-0.51	0.67	0.96
32	Tsc22d3	SID152294988	no change with or without drug	-0.45	0.67	-0.79	0.9
33	Acox2	SID152312532	no change with or without drug	-1.12	-0.51	-0.79	0.84
34	Smco1	SID152333910	no change with or without drug	-0.22	0.51	-0.45	0.92
35	Tst	SID152324855	high cell count without drug only	1.01	2.36	-0.45	1.03
36	Anxa6	SID152298739	no change with or without drug	-0.34	0.84	-0.79	0.91
37	Snrpn	SID152268479	no change with or without drug	0	-1.18	1.01	0.94
38	Dele1	SID152271941	no change with or without drug	0.9	1.18	0.22	1.02
39	Hamp	SID152293461	no change with or without drug	0.56	-0.34	0.9	0.99
40	Fabp3	SID152323095	low cell count with doxorubicin only (active)	-2.81	-1.01	-2.25	0.69
41	Sri	SID152301944	high cell count with doxorubicin only	2.14	1.18	1.46	1.13
42	Fhl3	SID152265832	no change with or without drug	-0.22	-1.52	1.01	0.92
43	Hoxb7	SID152303444	no change with or without drug	-0.67	0.17	-0.67	0.88
44	Klra1	SID152302200	no change with or without drug	1.12	1.85	0	1.04
45	1700129L13RIK	SID152311405	no change with or without drug	-0.9	1.69	-1.8	0.86
46	Phf7	SID152264546	no change with or without drug	-1.35	0.84	-1.8	0.82
47	Pvr	SID152314201	no change with or without drug	-0.67	-0.84	0	0.88
48	Pvr	SID152333128	no change with or without drug	-0.67	0.51	-0.9	0.88
49	4932407I05	SID152328875	high cell count with and without drug	2.02	2.36	0.56	1.12
50	Akap12	SID152301023	low cell count with doxorubicin only (active)	-2.7	0.51	-3.04	0.7
